Experimental data from the supplement of paper PMC10849652.
The list shows a part of the results.

Amino acid sequences for entries named in this document (tags omitted). A change or cut given only in a name is not applied to a line headed by its entry.
UniProt Q9C0D9, whole entry, looked up: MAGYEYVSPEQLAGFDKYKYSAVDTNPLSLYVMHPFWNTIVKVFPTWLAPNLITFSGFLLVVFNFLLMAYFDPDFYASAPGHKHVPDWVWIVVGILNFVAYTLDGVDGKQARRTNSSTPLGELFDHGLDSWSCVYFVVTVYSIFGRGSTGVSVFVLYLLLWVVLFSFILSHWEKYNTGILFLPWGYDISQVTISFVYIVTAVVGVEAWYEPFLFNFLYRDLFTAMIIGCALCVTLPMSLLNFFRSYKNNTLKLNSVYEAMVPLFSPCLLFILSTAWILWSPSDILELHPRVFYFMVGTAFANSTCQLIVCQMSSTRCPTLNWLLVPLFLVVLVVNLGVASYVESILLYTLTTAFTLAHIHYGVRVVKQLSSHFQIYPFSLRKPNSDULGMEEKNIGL
UniProt Q5VUM1: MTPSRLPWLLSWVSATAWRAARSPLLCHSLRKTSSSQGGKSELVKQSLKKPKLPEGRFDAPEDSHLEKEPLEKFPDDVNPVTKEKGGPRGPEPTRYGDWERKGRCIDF
UniProt O75446: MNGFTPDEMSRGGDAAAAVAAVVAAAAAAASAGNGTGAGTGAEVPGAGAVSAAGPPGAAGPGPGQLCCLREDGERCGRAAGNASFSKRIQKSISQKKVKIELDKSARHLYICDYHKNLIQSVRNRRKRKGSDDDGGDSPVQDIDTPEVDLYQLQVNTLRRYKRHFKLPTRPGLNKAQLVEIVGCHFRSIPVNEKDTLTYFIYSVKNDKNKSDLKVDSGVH
UniProt O94885: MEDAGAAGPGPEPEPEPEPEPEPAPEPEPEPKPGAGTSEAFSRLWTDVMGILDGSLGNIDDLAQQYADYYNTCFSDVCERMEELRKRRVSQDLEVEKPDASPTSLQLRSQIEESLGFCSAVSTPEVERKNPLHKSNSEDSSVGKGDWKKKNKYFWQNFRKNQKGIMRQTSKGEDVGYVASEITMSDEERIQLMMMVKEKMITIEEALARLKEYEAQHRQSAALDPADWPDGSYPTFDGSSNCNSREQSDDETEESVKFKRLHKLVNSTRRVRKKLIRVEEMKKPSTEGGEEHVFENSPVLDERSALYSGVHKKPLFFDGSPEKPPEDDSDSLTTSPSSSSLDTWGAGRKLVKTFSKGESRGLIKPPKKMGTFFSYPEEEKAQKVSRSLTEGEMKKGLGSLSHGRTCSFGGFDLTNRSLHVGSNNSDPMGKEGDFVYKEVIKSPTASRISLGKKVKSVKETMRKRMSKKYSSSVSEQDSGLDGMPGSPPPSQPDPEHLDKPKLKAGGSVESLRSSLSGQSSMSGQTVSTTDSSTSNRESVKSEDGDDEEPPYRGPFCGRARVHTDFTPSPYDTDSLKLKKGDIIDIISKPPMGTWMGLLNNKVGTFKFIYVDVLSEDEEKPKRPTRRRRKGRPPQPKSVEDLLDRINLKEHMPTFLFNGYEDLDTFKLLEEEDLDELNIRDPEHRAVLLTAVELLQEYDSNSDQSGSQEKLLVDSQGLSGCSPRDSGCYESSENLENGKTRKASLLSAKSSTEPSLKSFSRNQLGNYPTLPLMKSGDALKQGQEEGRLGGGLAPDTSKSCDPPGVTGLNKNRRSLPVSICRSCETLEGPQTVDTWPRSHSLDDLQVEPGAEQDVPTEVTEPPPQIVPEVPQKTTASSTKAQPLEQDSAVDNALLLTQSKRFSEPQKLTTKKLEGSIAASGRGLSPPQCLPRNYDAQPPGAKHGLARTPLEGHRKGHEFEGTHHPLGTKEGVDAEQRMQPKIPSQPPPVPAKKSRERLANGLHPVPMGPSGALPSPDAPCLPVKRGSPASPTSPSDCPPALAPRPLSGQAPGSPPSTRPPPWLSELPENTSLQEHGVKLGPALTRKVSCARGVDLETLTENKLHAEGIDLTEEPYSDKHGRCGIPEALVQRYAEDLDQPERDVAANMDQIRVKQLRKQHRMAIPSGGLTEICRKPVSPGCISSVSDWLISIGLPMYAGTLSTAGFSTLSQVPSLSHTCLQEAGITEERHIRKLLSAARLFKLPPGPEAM
UniProt Q9UPW6: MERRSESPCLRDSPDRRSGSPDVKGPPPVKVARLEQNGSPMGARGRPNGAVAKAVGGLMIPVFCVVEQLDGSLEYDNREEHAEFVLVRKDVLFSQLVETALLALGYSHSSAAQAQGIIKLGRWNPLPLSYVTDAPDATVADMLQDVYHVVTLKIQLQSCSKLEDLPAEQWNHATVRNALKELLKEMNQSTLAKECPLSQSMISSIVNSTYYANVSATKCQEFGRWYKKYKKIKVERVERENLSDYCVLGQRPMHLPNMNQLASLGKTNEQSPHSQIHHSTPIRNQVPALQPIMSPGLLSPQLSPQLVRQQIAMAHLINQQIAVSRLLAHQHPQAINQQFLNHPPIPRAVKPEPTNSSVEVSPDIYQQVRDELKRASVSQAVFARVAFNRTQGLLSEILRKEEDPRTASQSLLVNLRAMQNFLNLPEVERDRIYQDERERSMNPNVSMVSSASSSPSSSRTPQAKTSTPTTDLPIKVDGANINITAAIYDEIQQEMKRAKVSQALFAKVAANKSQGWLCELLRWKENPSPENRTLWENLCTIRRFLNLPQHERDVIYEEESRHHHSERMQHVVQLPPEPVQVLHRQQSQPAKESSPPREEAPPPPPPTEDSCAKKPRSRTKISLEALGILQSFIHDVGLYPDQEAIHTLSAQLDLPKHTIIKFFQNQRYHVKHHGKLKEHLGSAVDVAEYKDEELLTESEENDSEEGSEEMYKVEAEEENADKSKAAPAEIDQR
UniProt O14521: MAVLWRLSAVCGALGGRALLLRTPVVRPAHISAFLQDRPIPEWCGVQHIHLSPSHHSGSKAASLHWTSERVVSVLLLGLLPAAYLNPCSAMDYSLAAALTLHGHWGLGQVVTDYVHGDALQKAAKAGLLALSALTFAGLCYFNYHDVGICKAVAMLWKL
UniProt O95104: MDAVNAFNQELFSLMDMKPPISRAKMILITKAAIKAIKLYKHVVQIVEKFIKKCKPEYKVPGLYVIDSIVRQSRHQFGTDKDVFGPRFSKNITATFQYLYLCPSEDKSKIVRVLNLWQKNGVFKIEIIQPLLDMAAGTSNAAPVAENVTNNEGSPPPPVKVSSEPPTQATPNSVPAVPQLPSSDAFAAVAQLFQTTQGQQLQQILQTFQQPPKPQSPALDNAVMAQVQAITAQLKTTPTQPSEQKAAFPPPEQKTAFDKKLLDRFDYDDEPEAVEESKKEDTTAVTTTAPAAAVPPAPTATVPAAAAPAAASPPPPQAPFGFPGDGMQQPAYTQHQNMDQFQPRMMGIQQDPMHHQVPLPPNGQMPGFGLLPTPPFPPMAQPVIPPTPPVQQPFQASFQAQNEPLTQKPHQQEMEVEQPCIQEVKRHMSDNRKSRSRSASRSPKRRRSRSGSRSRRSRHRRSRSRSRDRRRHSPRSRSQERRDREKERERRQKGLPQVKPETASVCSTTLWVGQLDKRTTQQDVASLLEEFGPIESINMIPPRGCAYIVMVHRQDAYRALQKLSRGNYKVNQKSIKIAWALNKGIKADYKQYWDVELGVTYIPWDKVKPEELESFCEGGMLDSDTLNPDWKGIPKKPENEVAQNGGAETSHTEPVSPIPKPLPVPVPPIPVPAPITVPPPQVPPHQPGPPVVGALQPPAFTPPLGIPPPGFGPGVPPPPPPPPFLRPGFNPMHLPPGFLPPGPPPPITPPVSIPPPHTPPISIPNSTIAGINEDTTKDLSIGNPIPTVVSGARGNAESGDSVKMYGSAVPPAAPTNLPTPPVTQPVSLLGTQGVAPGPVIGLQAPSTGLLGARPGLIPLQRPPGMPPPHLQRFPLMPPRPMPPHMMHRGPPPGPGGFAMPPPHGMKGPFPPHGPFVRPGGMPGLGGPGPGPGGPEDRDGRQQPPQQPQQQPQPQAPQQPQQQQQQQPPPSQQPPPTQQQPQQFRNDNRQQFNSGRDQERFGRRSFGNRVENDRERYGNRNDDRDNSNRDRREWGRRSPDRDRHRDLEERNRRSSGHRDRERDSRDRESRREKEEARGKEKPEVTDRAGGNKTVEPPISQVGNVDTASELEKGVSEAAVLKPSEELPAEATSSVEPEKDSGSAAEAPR
UniProt Q8IZE3: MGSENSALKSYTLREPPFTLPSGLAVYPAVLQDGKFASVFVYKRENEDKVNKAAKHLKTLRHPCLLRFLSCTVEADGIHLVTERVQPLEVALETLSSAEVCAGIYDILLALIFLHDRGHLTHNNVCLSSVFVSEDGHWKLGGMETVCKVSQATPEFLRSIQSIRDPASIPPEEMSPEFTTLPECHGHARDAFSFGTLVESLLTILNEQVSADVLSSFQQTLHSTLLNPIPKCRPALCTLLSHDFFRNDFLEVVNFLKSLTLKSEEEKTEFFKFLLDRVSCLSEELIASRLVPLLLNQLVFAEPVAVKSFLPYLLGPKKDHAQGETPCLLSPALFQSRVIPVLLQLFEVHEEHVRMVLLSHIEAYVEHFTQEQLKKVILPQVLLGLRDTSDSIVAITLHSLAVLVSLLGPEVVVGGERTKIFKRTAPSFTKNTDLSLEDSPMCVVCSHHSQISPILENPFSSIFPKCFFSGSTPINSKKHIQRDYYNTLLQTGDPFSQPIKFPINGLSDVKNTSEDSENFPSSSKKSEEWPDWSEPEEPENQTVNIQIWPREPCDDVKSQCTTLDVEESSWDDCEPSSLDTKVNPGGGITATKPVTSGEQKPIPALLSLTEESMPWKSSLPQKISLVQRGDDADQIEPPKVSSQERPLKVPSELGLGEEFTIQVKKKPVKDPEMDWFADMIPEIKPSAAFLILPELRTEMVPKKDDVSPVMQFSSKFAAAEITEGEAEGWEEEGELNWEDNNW
UniProt Q8WXD2: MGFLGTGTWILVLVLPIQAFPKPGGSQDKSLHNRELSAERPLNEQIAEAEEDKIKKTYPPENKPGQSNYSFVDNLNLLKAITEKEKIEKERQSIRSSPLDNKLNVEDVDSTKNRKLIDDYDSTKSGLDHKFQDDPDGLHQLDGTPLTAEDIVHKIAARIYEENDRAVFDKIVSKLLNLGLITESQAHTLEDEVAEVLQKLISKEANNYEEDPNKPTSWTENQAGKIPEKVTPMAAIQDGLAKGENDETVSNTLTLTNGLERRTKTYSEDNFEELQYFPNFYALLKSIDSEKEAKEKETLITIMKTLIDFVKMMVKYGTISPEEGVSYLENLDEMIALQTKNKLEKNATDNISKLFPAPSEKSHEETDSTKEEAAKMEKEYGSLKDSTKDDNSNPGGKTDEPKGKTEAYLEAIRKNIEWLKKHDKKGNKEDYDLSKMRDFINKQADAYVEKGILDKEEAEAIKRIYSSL
UniProt Q9H4L4: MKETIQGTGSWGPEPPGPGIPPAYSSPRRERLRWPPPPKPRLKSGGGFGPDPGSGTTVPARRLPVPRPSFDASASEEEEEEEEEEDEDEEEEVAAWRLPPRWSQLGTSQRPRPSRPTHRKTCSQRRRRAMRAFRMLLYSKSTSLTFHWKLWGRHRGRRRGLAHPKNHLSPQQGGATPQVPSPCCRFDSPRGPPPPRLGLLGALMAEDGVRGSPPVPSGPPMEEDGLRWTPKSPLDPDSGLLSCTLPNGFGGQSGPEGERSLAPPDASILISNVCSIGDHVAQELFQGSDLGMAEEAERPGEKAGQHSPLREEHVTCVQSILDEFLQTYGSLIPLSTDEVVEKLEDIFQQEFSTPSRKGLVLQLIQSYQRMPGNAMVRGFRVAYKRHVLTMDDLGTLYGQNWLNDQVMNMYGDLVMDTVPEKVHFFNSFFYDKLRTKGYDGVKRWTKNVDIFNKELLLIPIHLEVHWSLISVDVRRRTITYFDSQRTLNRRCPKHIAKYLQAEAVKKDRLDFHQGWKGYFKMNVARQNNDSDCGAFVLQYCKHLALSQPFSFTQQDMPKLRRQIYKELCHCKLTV
UniProt P62341, whole entry, looked up: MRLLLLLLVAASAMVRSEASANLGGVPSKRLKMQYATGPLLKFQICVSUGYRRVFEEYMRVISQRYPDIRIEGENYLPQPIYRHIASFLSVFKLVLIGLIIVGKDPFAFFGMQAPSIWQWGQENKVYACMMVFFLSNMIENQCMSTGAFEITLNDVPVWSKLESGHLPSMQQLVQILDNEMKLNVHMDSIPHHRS
UniProt O75556: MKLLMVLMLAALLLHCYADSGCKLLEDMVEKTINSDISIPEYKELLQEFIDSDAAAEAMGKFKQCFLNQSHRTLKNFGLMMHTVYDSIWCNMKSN

Legend:
Test in all cases: log2 fold change, soluble protein after heating vs DMSO (PISA); higher = thermal stabilisation; K562 lysate, 10 uM; active = over 0.2 and 3.5 SD of the protein, either way, in both replicates (recomputed)
[1] = compound: CCCS(=O)(=O)Nc1ccc(F)c(C(=O)c2c[nH]c3ncc(Cl)cc23)c1F
Method in brief: (§1)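 K562 pellets were dounce-homogenised in PBS pH 7.4 with 1 mM MgCl2, and the crude extract at 1 mg/mL protein was treated with 10 μM compound for 30 min. Aliquots were heated for 3 min across 48°C-58°C, pooled, and brought to 0.5% NP-40 at 4°C; soluble protein was the supernatant after 21,000xg for 90 min. Soluble protein was quantified by TMTpro 16plex LC-MS/MS with channel sums equalised, and reported as log2 fold change in thermal stability against DMSO controls, with values from duplicates.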

barasertib = compound: CCN(CCCOc1ccc2c(Nc3cc(CC(=O)Nc4cccc(F)c4)[nH]n3)ncnc2c1)CCOP(=O)(O)O [barasertib]
Method in brief: as §1

[2] = compound: CC[C@@H]1C(=O)N(C)c2cnc(Nc3ccc(C(=O)NC4CCN(C)CC4)cc3OC)nc2N1C1CCCC1
Method in brief: as §1

volasertib = compound: CC[C@@H]1C(=O)N(C)c2cnc(Nc3ccc(C(=O)N[C@H]4CC[C@H](N5CCN(CC6CC6)CC5)CC4)cc3OC)nc2N1C(C)C [volasertib]
Method in brief: as §1

[3] = compound: CCn1c(C(=O)N(C2CC2)C2CC2)cc2c3c(ncn3C)c(Nc3cc(C)n(C)n3)nc21
Method in brief: as §1

saracatinib = compound: CN1CCN(CCOc2cc(OC3CCOCC3)c3c(Nc4c(Cl)ccc5c4OCO5)ncnc3c2)CC1 [saracatinib]
Method in brief: as §1

sotrastaurin = compound: CN1CCN(c2nc(C3=C(c4c[nH]c5ccccc45)C(=O)NC3=O)c3ccccc3n2)CC1 [sotrastaurin]
Method in brief: as §1

Tubastatin A = compound: CN1CCc2c(c3ccccc3n2Cc2ccc(C(=O)NO)cc2)C1 [Tubastatin A]
Method in brief: as §1

[4] = compound: CNC(=O)C1=CC=CC=C1NC2=NC(=NC=C2Cl)NC3=C(C=C(C=C3)N4CCOCC4)OC
Method in brief: as §1

[5] = compound: CNc1nc(-c2ccc3c(N)n[nH]c3c2)cc(N2C[C@@H](C(=O)NC3CCCCC3)CC[C@H]2C)n1
Method in brief: as §1

encorafenib = compound: COC(=O)N[C@@H](C)CNc1nccc(-c2cn(C(C)C)nc2-c2cc(Cl)cc(NS(C)(=O)=O)c2F)n1 [encorafenib]
Method in brief: as §1

[6] = compound: COC(=O)[C@H](CCSC)NC(=O)C1=C(C=C(C=C1)NC[C@H](CS)N)C2=CC=CC=C2
Method in brief: as §1

[7] = compound: COc1cc2nc(-c3cc(F)ccc3O)nc(N[C@@H]3CNC[C@H]3C(C)(C)O)c2cc1OC
Method in brief: as §1

vemurafenib = compound: CCCS(=O)(=O)Nc1ccc(F)c(C(=O)c2c[nH]c3ncc(-c4ccc(Cl)cc4)cc23)c1F [vemurafenib]
Method in brief: as §1

defactinib = compound: CNC(=O)c1ccc(Nc2ncc(C(F)(F)F)c(NCc3nccnc3N(C)S(C)(=O)=O)n2)cc1 [defactinib]
Method in brief: as §1

[8] = compound: CCn1cc(-c2ccnc3[nH]c(-c4cccc(CN(C)C)c4)cc23)c(-c2ccc(NC(=O)N(C)C)cc2)n1
Method in brief: as §1

[9] = compound: CN1CCC(CNc2ccc3ncc(-c4cccc(OC(F)(F)F)c4)n3n2)CC1
Method in brief: as §1

alvocidib = compound: CN1CC[C@H](c2c(O)cc(O)c3c(=O)cc(-c4ccccc4Cl)oc23)[C@H](O)C1 [alvocidib]
Method in brief: as §1

alisertib = compound: COc1cc(Nc2ncc3c(n2)-c2ccc(Cl)cc2C(c2c(F)cccc2OC)=NC3)ccc1C(=O)O [alisertib]
Method in brief: as §1

gefitinib = compound: COc1cc2ncnc(Nc3ccc(F)c(Cl)c3)c2cc1OCCCN1CCOCC1 [gefitinib]
Method in brief: as §1

Measured: log2 fold change

SELENOI (UniProt Q9C0D9)
inactive: [1] 0.052 | barasertib 0.067 | [2] 0.058 | volasertib -0.076 | [3] 0.029 | saracatinib 0.032 | sotrastaurin -0.086 | Tubastatin A -0.087 | [4] 0.335 | [5] -0.019 | encorafenib 0.024 | [6] 0 | [7] -0.078

SAE1 (UniProt M0R286)
inactive: vemurafenib 0.051 | [1] 0.052 | [2] -0.056 | volasertib 0.09 | saracatinib -0.039 | [4] -0.035 | defactinib -0.143 | [5] 0.03 | encorafenib 0.13 | [6] 0.019 | [7] 0.23

SEMA4G isoform 2 (UniProt Q9NTN9)
inactive: vemurafenib 0.042 | [2] -0.059 | [8] -0.072 | [9] 0.04 | saracatinib -0.227 | sotrastaurin 0.004 | alvocidib -0.116 | [4] 0.122 | defactinib -0.047 | [5] 0.143 | encorafenib -0.193 | [6] 0.215

SDHAF4 (UniProt Q5VUM1)
inactive: vemurafenib -0.02 | [1] 0.047 | barasertib 0.049 | [2] 0.085 | volasertib 0.015 | [8] 0.018 | [9] 0.014 | saracatinib 0.022 | sotrastaurin 0.051 | alvocidib -0.033 | [4] 0.045 | defactinib 0.05 | [5] -0.024 | encorafenib 0 | [6] -0.014 | [7] -0.018

SAP30 (UniProt O75446)
inactive: vemurafenib -0.016 | [1] 0.006 | barasertib 0.051 | [2] 0.063 | volasertib -0.054 | [8] 0.103 | [9] -0.022 | saracatinib 0.016 | sotrastaurin -0.013 | alvocidib -0.022 | defactinib -0.028 | [5] 0.089 | encorafenib -0.007 | [6] 0.053 | alisertib 0.044 | [7] 0.087 | gefitinib -0.285

SASH1 (UniProt O94885)
inactive: [1] -0.003 | barasertib -0.151 | [2] -0.011 | volasertib 0.016 | [3] -0.075 | [8] 0.165 | [9] -0.03 | saracatinib 0.077 | sotrastaurin 0.07 | alvocidib -0.063 | Tubastatin A 0.046 | [4] 0.034 | [5] -0.033 | encorafenib 0.041 | [6] 0.022 | alisertib 0.011 | [7] -0.023 | gefitinib 0.103

SATB2 (UniProt Q9UPW6)
inactive: vemurafenib 0.002 | [1] 0 | [2] 0.023 | volasertib 0.007 | [3] 0.009 | [8] 0.074 | [9] 0.016 | saracatinib -0.026 | sotrastaurin 0.032 | alvocidib 0.047 | Tubastatin A -0.096 | [4] -0.019 | defactinib -0.022 | [5] -0.031 | encorafenib 0.053 | [6] -0.022 | alisertib 0.024 | [7] -0.008 | gefitinib 0.01

Fetched one by one from the list above (2):
SATB2 (UniProt Q9UPW6)
inactive: vemurafenib 0.002 | [1] 0 | [2] 0.023 | volasertib 0.007 | [3] 0.009 | [8] 0.074 | [9] 0.016 | saracatinib -0.026 | sotrastaurin 0.032 | alvocidib 0.047 | Tubastatin A -0.096 | [4] -0.019 | defactinib -0.022 | [5] -0.031 | encorafenib 0.053 | [6] -0.022 | alisertib 0.024 | [7] -0.008 | gefitinib 0.01

SASH1 (UniProt O94885)
inactive: [1] -0.003 | barasertib -0.151 | [2] -0.011 | volasertib 0.016 | [3] -0.075 | [8] 0.165 | [9] -0.03 | saracatinib 0.077 | sotrastaurin 0.07 | alvocidib -0.063 | Tubastatin A 0.046 | [4] 0.034 | [5] -0.033 | encorafenib 0.041 | [6] 0.022 | alisertib 0.011 | [7] -0.023 | gefitinib 0.103

Additional records:

SDHD (UniProt O14521)
inactive: vemurafenib -0.071 | [1] 0.018 | [2] -0.074 | volasertib -0.062 | [3] 0.051 | [8] -0.151 | [9] -0.097 | saracatinib 0.058 | sotrastaurin 0.058 | alvocidib 0.086 | Tubastatin A -0.043 | [4] 0.127 | defactinib 0.296 | [5] 0.056 | encorafenib 0.018 | [6] -0.033 | alisertib -0.019 | [7] -0.027 | gefitinib -0.082

SCAF4 (UniProt O95104)
inactive: vemurafenib 0.018 | [1] 0.071 | barasertib 0.032 | [2] 0.017 | volasertib -0.03 | [3] -0.008 | [8] 0.002 | [9] -0.011 | saracatinib -0.015 | sotrastaurin 0.052 | alvocidib -0.098 | Tubastatin A -0.043 | [4] -0.039 | defactinib -0.004 | [5] -0.014 | encorafenib 0.006 | [6] 0.053 | alisertib -0.003 | [7] 0.033 | gefitinib -0.037

SCYL3 isoform 2 (UniProt Q8IZE3)
inactive: vemurafenib 0.007 | barasertib 0.047 | [2] 0.024 | [3] 0.015 | [8] -0.242 | [9] -0.01 | saracatinib 0.031 | sotrastaurin 0.034 | alvocidib 0 | Tubastatin A -0.04 | [4] 0.023 | defactinib 0.007 | [5] -0.011 | encorafenib 0.025 | [6] -0.055 | alisertib -0.055 | gefitinib 0.062

SCG3 (UniProt Q8WXD2)
inactive: vemurafenib 0.275 | [2] 0.083 | [8] -0.003 | [9] 0.026 | saracatinib 0 | sotrastaurin 0.134 | alvocidib -0.034 | [4] 0.03 | defactinib 0.073 | [5] -0.156 | encorafenib 0.019 | [6] -0.199 | alisertib -0.024 | gefitinib 0.046

SENP3 (UniProt Q9H4L4)
inactive: vemurafenib -0.08 | [1] -0.435 | [2] -0.174 | volasertib -0.516 | [8] 0.113 | [9] -0.172 | saracatinib 0.029 | sotrastaurin 0.052 | alvocidib -0.12 | [4] 0.1 | defactinib 0.023 | [5] -0.056 | encorafenib -0.109 | [6] 0.284 | [7] -0.01

SELENOT (UniProt P62341)
inactive: [1] 0.013 | barasertib 0.097 | [2] 0.148 | volasertib -0.003 | [3] -0.022 | [8] -0.19 | [9] 0.156 | saracatinib -0.067 | sotrastaurin 0.022 | alvocidib -0.086 | Tubastatin A 0.024 | [4] 0.06 | [5] -0.049 | encorafenib 0.116 | [6] -0.029 | alisertib 0.024 | [7] -0.044 | gefitinib 0.018

SAFB2 (UniProt K7EQU4)
inactive: barasertib -0.188 | saracatinib 0.185 | sotrastaurin -0.015 | [5] 0.159 | alisertib 0.019 | gefitinib -0.168

SCGB2A1 (UniProt O75556)
inactive: [1] 0.057 | volasertib -0.269 | [8] 0.791 | [9] -0.26 | alvocidib -0.134 | [7] -0.188

SEC16A isoform 2 (UniProt O15027)
inactive: [3] -0.204 | Tubastatin A 0.023
